From US11889833B2, “Protoporphyrinogen oxidase inhibitors” (Enko Chem, Inc., priority 2022, dated 2024)
Some of these results come from one statement about several compounds together.

target: T1, Amaranthus tuberculatum Protoporphyrinogen Oxidase (AmPPO) (Amaranthus tuberculatus, UniProt Q0NZW9); assay: PPO in vitro assay (AmPPO); format: biochemical; conditions: AmPPO enzyme, bound less than 100 nM
T1 construct: fused on or other part: C-terminal His tag (pET28b)
T1 sequence (Q0NZW9 1-534): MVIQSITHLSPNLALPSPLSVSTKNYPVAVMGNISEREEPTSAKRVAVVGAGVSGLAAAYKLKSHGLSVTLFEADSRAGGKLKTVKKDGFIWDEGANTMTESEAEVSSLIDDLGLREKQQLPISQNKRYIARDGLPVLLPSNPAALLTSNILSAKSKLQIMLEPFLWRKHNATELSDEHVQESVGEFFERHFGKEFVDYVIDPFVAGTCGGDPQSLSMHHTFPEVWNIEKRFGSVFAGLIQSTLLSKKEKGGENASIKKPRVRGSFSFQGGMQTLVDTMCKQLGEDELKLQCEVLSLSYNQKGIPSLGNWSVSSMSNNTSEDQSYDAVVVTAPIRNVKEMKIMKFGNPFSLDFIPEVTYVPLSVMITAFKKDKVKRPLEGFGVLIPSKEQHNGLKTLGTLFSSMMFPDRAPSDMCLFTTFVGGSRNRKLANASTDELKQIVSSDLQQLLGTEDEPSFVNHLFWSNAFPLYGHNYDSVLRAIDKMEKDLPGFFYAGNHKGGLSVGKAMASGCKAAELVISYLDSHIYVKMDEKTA

Q: With `CCC(=O)NS(=O)(=O)c1cc(-c2c(F)cc(F)c(F)c2F)c(F)cc1Cl` [Compound 26, N-((4-chloro-2′,3′,4′,6,6′-pentafluoro-[1,1′-biphenyl]-3-yl)sulfonyl)propionamide] as the compound, how does the IC50 read?
A: < 100 nM

Q: Which IC50 does the source give for `COCC(=O)NS(=O)(=O)c1cc(-c2c(F)cc(F)c(F)c2F)c(F)cc1Cl` [Compound 47, N-((4-chloro-2′,3′,4′,6,6′-pentafluoro-[1,1′-biphenyl]-3-yl)sulfonyl)-2-methoxyacetamide] here?
A: < 100 nM

Q: How did the IC50 turn out when `CS(=O)(=O)NS(=O)(=O)c1cc(-c2c(F)cc(F)c(F)c2F)c(F)cc1Cl` [Compound 48, 4-chloro-2′,3′,4′,6,6′-pentafluoro-N-(methylsulfonyl)-[1,1′-biphenyl]-3-sulfonamide] was run?
A: < 100 nM

Q: `CC(=O)C(=O)NS(=O)(=O)c1cc(-c2c(F)cc(F)c(F)c2F)c(F)cc1Cl` [Compound 77, N-((4-chloro-2′,3′,4′,6,6′-pentafluoro-[1,1′-biphenyl]-3-yl)sulfonyl)-2-oxopropanamide] was tested. Which IC50 did it give?
A: < 100 nM

Q: For `O=C(NS(=O)(=O)c1cc(-c2c(F)cc(F)c(F)c2F)c(F)cc1Cl)c1ccc(Cl)cc1` [Compound 31, 4-chloro-N-((4-chloro-2′,3′,4′,6,6′-pentafluoro-[1,1′-biphenyl]-3-yl)sulfonyl)benzamide], which IC50 is on record?
A: < 100 nM

Q: `O=C(NS(=O)(=O)c1cc(-c2c(F)cc(F)c(F)c2F)c(F)cc1Cl)C1CCOCC1` [Compound 28, N-((4-chloro-2′,3′,4′,6,6′-pentafluoro-[1,1′-biphenyl]-3-yl)sulfonyl)tetrahydro-2H-pyran-4-carboxamide] was tested. Which IC50 did it give?
A: < 100 nM

Q: How did the IC50 turn out when `O=C(Cc1ccccc1)NS(=O)(=O)c1cc(-c2c(F)c(F)c(F)c(F)c2F)c(F)cc1Cl` [Compound 21, N-((4-chloro-2′,3′,4′,5′,6,6′-hexafluoro-[1,1′-biphenyl]-3-yl)sulfonyl)-2-phenylacetamide] was run?
A: < 100 nM

Q: For `C=C(C)C(=O)NS(=O)(=O)c1cc(-c2c(F)cc(F)c(F)c2F)c(F)cc1Cl` [Compound 75, N-((4-chloro-2′,3′,4′,6,6′-pentafluoro-[1,1′-biphenyl]-3-yl)sulfonyl)methacrylamide], which IC50 is on record?
A: < 100 nM

Q: How did the IC50 turn out when `CCCC(=O)NS(=O)(=O)c1cc(-c2c(F)cc(F)c(F)c2F)c(F)cc1Cl` [Compound 56, N-((4-chloro-2′,3′,4′,6,6′-pentafluoro-[1,1′-biphenyl]-3-yl)sulfonyl)butyramide] was run?
A: < 100 nM

Q: How did the IC50 turn out when `C[C@@H](Sc1cc(-c2c(F)c(F)c(F)c(F)c2F)c(F)cc1Cl)C(=O)N1CCC[C@H]1C(=O)O` [Compound 12, ((R)-2-((4-chloro-2′,3′,4′,5′,6,6′-hexafluoro-[1,1′-biphenyl]-3-yl)thio)propanoyl)-L-proline] was run?
A: < 100 nM

Q: With `CC(C)C(=O)NS(=O)(=O)c1cc(-c2c(F)cc(F)c(F)c2F)c(F)cc1Cl` [Compound 59, N-((4-chloro-2′,3′,4′,6,6′-pentafluoro-[1,1′-biphenyl]-3-yl)sulfonyl)isobutyramide] as the compound, how does the IC50 read?
A: < 100 nM

Q: How did the IC50 turn out when `O=C(NS(=O)(=O)c1cc(-c2c(F)cc(F)c(F)c2F)c(F)cc1Cl)N1CCSCC1` [Compound 54, N-((4-chloro-2′,3′,4′,6,6′-pentafluoro-[1,1′-biphenyl]-3-yl)sulfonyl)thiomorpholine-4-carboxamide] was run?
A: < 100 nM

Q: For `CC(C)(C)CC(=O)NS(=O)(=O)c1cc(-c2c(F)cc(F)c(F)c2F)c(F)cc1Cl` [Compound 64, N-((4-chloro-2′,3′,4′,6,6′-pentafluoro-[1,1′-biphenyl]-3-yl)sulfonyl)-3,3-dimethylbutanamide], which IC50 is on record?
A: < 100 nM

Q: `CCC(=O)N(Cc1ccccc1)S(=O)(=O)c1cc(-c2c(F)cc(F)c(F)c2F)c(F)cc1Cl` [Compound 69, N-benzyl-N-((4-chloro-2′,3′,4′,6,6′-pentafluoro-[1,1′-biphenyl]-3-yl)sulfonyl)propionamide] was tested. Which IC50 did it give?
A: < 100 nM

Q: For `CCC(=O)NS(=O)(=O)c1cc(-c2c(F)cc(F)c(F)c2F)c(F)cc1F` [Compound 50, N -((2′,3′,4,4′,6,6′-hexafluoro-[1,1′-biphenyl]-3-yl)sulfonyl)propionamide], which IC50 is on record?
A: < 100 nM

Q: With `O=C1CCC(=O)N1S(=O)(=O)c1cc(-c2c(F)cc(F)c(F)c2F)c(F)cc1Cl` [Compound 70, 1-((4-chloro-2′,3′,4′,6,6′-pentafluoro-[1,1′-biphenyl]-3-yl)sulfonyl)pyrrolidine-2,5-dione] as the compound, how does the IC50 read?
A: < 100 nM

Q: With `O=C(NS(=O)(=O)c1cc(-c2c(F)cc(F)c(F)c2F)c(F)cc1Cl)C1CCCCC1` [Compound 46, N-((4-chloro-2′,3′,4′,6,6′-pentafluoro-[1,1′-biphenyl]-3-yl)sulfonyl)cyclohexanecarboxamide] as the compound, how does the IC50 read?
A: < 100 nM

Q: For `O=C(NS(=O)(=O)c1cc(-c2c(F)cc(F)c(F)c2F)c(F)cc1Cl)c1ccccc1Cl` [Compound 30, 2-chloro-N-((4-chloro-2′,3′,4′,6,6′-pentafluoro-[1,1′-biphenyl]-3-yl)sulfonyl)benzamide], which IC50 is on record?
A: < 100 nM

Q: With `CC(C)CC(=O)NS(=O)(=O)c1cc(-c2c(F)c(F)c(F)c(F)c2F)c(F)cc1Cl` [Compound 20, N-((4-chloro-2′,3′,4′,5′,6,6′-hexafluoro-[1,1′-biphenyl]-3-yl)sulfonyl)-3-methylbutanamide] as the compound, how does the IC50 read?
A: < 100 nM

Q: With `CCC(=O)N(C)S(=O)(=O)c1cc(-c2c(F)cc(F)c(F)c2F)c(F)cc1Cl` [Compound 72, N-((4-chloro-2′,3′,4′,6,6′-pentafluoro-[1,1′-biphenyl]-3-yl)sulfonyl)-N-methylpropionamide] as the compound, how does the IC50 read?
A: < 100 nM

Q: How did the IC50 turn out when `CC(C)C(=O)NS(=O)(=O)c1cc(-c2c(F)c(F)c(F)c(F)c2F)c(F)cc1Cl` [Compound 19, N-((4-chloro-2′,3′,4′,5′,6,6′-hexafluoro-[1,1′-biphenyl]-3-yl)sulfonyl)isobutyramide] was run?
A: < 100 nM

Q: With `Fc1cc(Cl)c(SCc2ccccc2)nc1-c1c(F)cc(F)c(F)c1F` [Compound 67, 2-(benzylthio)-3-chloro-5-fluoro-6-(2,3,4,6-tetrafluorophenyl)pyridine] as the compound, how does the IC50 read?
A: < 100 nM

Q: How did the IC50 turn out when `O=C(NS(=O)(=O)c1cc(-c2c(F)cc(F)c(F)c2F)c(F)cc1Cl)Oc1ccccc1` [Compound 33, phenyl ((4-chloro-2′,3′,4′,6,6′-pentafluoro-[1,1′-biphenyl]-3-yl)sulfonyl)carbamate] was run?
A: < 100 nM

Q: Which IC50 does the source give for `COC(=O)CCNC(=O)[C@H](C)Sc1cc(-c2c(F)c(F)c(F)c(F)c2F)c(F)cc1Cl` [Compound 5, methyl (S)-3-(2-((4-chloro-2′,3′,4′,5′,6,6′-hexafluoro-[1,1′-biphenyl]-3-yl)thio)propanamido)propanoate] here?
A: < 100 nM

same assay, conditions: AmPPO enzyme, bound less than 1 μM

Q: `O=C(NS(=O)(=O)c1cc(-c2c(F)cc(F)c(F)c2F)c(F)cc1Cl)[C@H]1CC[C@H](O)CC1` [Compound 45, (1r,4r)-N-((4-chloro-2′,3′,4′,6,6′-pentafluoro-[1,1′-biphenyl]-3-yl)sulfonyl)-4-hydroxycyclohexane-1-carboxamide] was tested. Which IC50 did it give?
A: < 1000 nM

Q: For `NS(=O)(=O)c1cc(-c2c(F)cc(F)c(F)c2F)c(F)cc1Cl` [Compound 25, 4-chloro-2′,3′,4′,6,6′-pentafluoro-[1,1′-biphenyl]-3-sulfonamide], which IC50 is on record?
A: < 1000 nM

Q: Which IC50 does the source give for `O=C(NS(=O)(=O)c1cc(-c2c(F)cc(F)c(F)c2F)c(F)cc1Cl)[C@H]1CC[C@@H](O)CC1` [Compound 39, (1s,4s)-N-((4-chloro-2′,3′,4′,6,6′-pentafluoro-[1,1′-biphenyl]-3-yl)sulfonyl)-4-hydroxycyclohexane-1-carboxamide] here?
A: < 1000 nM

Q: For `NS(=O)(=O)c1nc(-c2c(F)cc(F)c(F)c2F)c(F)cc1Cl` [Compound 68, 3-chloro-5-fluoro-6-(2,3,4,6-tetrafluorophenyl)pyridine-2-sulfonamide], which IC50 is on record?
A: < 1000 nM
